Results from PubChem BioAssay (NCATS).
The inconclusive results got no clear call from the source; some entries with a clear call stand among them for comparison. A potency beside an inconclusive call is a rough fit, not a confirmed value. Active and inactive are the calls of the source. The call rests on the fitted dose curve; in most records, active means well fitted cell-killing curve with a large enough effect; inconclusive means small, poorly fitted or top-dose-only effect, or effect the other way; inactive means no such curve, though single readings can be large or run the other way.

Test: Quantitative High-Throughput drug screen in 47 multiple myeloma cell lines against the NCATS MIPE library collection: OPM1_PLB cell viability assay (AID 1918989); further: nearly all actives have a fitted effect of over 40% in size
Settings: CellTiter-Glo, 48 h; viability (% of control): at 45.8 µM (top of the series)
Outline: (§1)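 500 cells/well per myeloma line exposed to pinned MIPE 4.0 compounds for 48 h at 37 °C, 5% CO2. Viability read as ATP by CellTiter-Glo luminescence, normalised to DMSO-only (100%) and media-only (0%) wells.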
Potency means the concentration at half of the fitted maximal effect.

SMILES | Potency
COc1cc2nc(-c3ccc(N4CCN(C)CC4)cc3)nc(NCCN3CCOCC3)c2cc1OC | active: 0.166 µM
COc1ccc2cc([C@H](C)C(=O)O)ccc2c1 | inconclusive: 29.6 µM [cytotoxic, single point]
O=Nc1c(-c2c(O)[nH]c3cc(Br)ccc23)[nH]c2ccccc12 | active: 5.26 µM
O=NN(CCCl)C(=O)NCCCl | inactive
C=C(c1ccc(C(=O)O)cc1)c1cc2c(cc1C)C(C)(C)CCC2(C)C | inconclusive: 0.0166 µM [rising, full curve]
CNC[C@H](O)c1ccc(O)c(O)c1 | inconclusive: 19.1 µM [cytotoxic, partial curve, poor fit]
CCn1cc(C(=O)O)c(=O)c2cc(F)c(N3CCNC(C)C3)c(F)c21 (centres undefined) | active: 11.8 µM
N[C@@H](Cc1c[nH]c2ccc(O)cc12)C(=O)O | inactive
Cc1cc2c(s1)Nc1ccccc1N=C2N1CCN(C)CC1 | inconclusive: 0.0026 µM [rising, full curve, poor fit]
CCN(CC)C(=S)SSC(=S)N(CC)CC | active: 0.001 µM
O=C(O)c1ccccc1C(=O)Nc1ccc(-c2ccccc2)cc1 | inconclusive: 0.0037 µM [rising, full curve, poor fit]
COc1ccc(-c2coc3cc(O)cc(O)c3c2=O)cc1 | inactive
NC1CCC(Nc2nc(Nc3ccc(C(=O)N4CCCCC4)cc3)c3ncn(-c4cccc(F)c4)c3n2)CC1 (centres undefined) | inactive
Cc1ccnc2c1NC(=O)c1cccnc1N2C1CC1 | inactive

Retrieved by compound from above, 2 records:
SMILES | Potency
Cc1ccnc2c1NC(=O)c1cccnc1N2C1CC1 | inactive
CCn1cc(C(=O)O)c(=O)c2cc(F)c(N3CCNC(C)C3)c(F)c21 (centres undefined) | active: 11.8 µM

Test: Quantitative High-Throughput drug screen in 47 multiple myeloma cell lines against the NCATS MIPE library collection: SKMM1_PLB cell viability assay (AID 1919863); further: nearly all actives have a fitted effect of over 35% in size
Settings: SKMM1 myeloma viability, CellTiter-Glo ATP, 48 h; viability: hits give low values
Outline: as §1

SMILES | Potency | viability
CN(C)c1cc(NC(=O)CNC(C)(C)C)c(O)c2c1C[C@@H]1C[C@H]3[C@H](N(C)C)C(=O)C(C(N)=O)=C(O)[C@@]3(O)C(=O)C1=C2O | inconclusive: 4.69 µM [cytotoxic, full curve, poor fit] | –
O=C(c1ccccc1)c1ccc2n1CCC2C(=O)O (centres undefined) | – | inactive: 105%
CC(C)(O)[C@H]1CC[C@@](C)([C@H]2[C@@H](O)C[C@@]3(C)[C@@H]4C[C@H](O[C@@H]5O[C@H](CO)[C@@H](O)[C@H](O)[C@@H]5O)[C@H]5C(C)(C)[C@@H](O[C@@H]6OC[C@@H](O)[C@H](O)[C@@H]6O)CC[C@@]56C[C@@]46CC[C@]23C)O1 | inconclusive: 11.8 µM [cytotoxic, partial curve, poor fit] | –
Cc1nc(N)sc1-c1ccnc(Nc2ccc(N3CCOCC3)cc2)n1 | inconclusive: 29.6 µM [cytotoxic, single point] | –
O=c1c(O)c(-c2ccc(O)c(O)c2)oc2cc(O)ccc12 | inconclusive: 23.5 µM [cytotoxic, partial curve] | –
NS(=O)(=O)c1cccc2c1C(=O)c1cccc(O)c1C2=O | active: 0.372 µM | –
C=C(c1ccc(C(=O)O)cc1)c1cc2c(cc1C)C(C)(C)CCC2(C)C | inconclusive: 0.0469 µM [rising, full curve, poor fit] | –
COc1ccc2c3c1OC1C[C@@H](O)C=C[C@@]31CCN(C)C2 (some centres undefined) | – | inactive: 103%
Cc1ccc(C(=O)Nc2cccc(C(F)(F)F)c2)cc1Nc1nc(-c2cccnc2)nc2c1cnn2C | active: 14.8 µM | –
C=C1C(=CC=C2CCC[C@]3(C)[C@@H]([C@H](C)CCCC(C)(C)O)CC[C@@H]23)C[C@@H](O)C[C@@H]1O | inconclusive: 13.2 µM [cytotoxic, partial curve, poor fit] | –
CCCCCNC(=O)N1CCC(CN(Cc2ccc(Cl)cc2)Cc2ccc([N+](=O)[O-])s2)C1 (centres undefined) | active: 18.7 µM | –
CN(C)c1ccc2nc3ccc(=[N+](C)C)cc-3sc2c1 | active: 1.66 µM | –
CC1(C)CCC2=C(O1)c1ccccc1C(=O)C2=O | active: 20.9 µM | –
N[C@@H](Cc1c[nH]c2ccc(O)cc12)C(=O)O | – | inactive: 109%
Cc1cc2c(s1)Nc1ccccc1N=C2N1CCN(C)CC1 | – | inactive: 120%
CCN(CC)C(=S)SSC(=S)N(CC)CC | active: 0.0105 µM | –
CN1CCC(=C2c3ccccc3CCc3sccc32)CC1 | – | inactive: 99.6%
CCOC(=O)N1CCN([N+]([O-])=NOc2ccc([N+](=O)[O-])cc2[N+](=O)[O-])CC1 | active: 6.62 µM | –
Oc1ccc2ccccc2c1SSc1c(O)ccc2ccccc12 | active: 18.7 µM | –
CC[C@]1(O)C[C@@H]2CN(CCc3c([nH]c4ccccc34)[C@@](C(=O)OC)(c3cc4c(cc3OC)N(C=O)[C@@H]3C45CCN4CC=C[C@](CC)([C@H]45)[C@@H](OC(C)=O)[C@]3(O)C(=O)OC)C2)C1 (some centres undefined) | active: 20.9 µM | –
